Experimental data: PubChem BioAssay AID2685 (National Center for Advancing Translational Sciences (NCATS), 2010)
Values joined by “and” are separate entries in the source; they are usually repeats but may differ in a detail not shown here. Identical values can stand only once. The list shows a part of the results. Shown are side measurements of this screen, not its main read-out; they come without a call. The list favours compounds with an active or inconclusive main result. The note in brackets gives the kind of curve behind each potency; many fits are weak.

Assay: qHTS Assay for Lipid Storage Modulators in Drosophila S3 Cells;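 on cell number change: cells counted by Cell Tracker Red CMTPX staining in the red channel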
Conditions: BODIPY lipid droplet fluorescence, 18-24 h; for cell number change: measured here: cell count max response, cells fed with added oleic acid
Procedure, shortened: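 Drosophila S3 cells loaded with oleic acid (400 uM, as added) and compounds at several concentrations; lipid droplets imaged by 488-nm laser-scanning cytometry, 500–530 nm intensity and object ratio to cell channel. Percent activity normalized to 20 uM Triacsin C.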

[1] = measured here: lipid fluorescence (Fed channel) AC50, cells fed with added oleic acid
[2] = measured here: cell number channel AC50, cells fed with added oleic acid

| SMILES | cell number change | AC50 [1] | AC50 [2] |
| --- | --- | --- | --- |
| COc1ccc(NC(=O)CCC(=O)OCc2ccc(C(=O)Oc3ccc(Cl)cc3)cc2)cc1 | 12.1% | – | – |
| COc1cccc2cc(-c3csc(CCn4nc(C)cc4C)n3)c(=O)oc12 | -20.6% | 1.03 µM [rising, single point] | – |
| Cc1nn(-c2ccccc2)c(N)c1N=Nc1ccccc1 | 11.8% | – | – |
| CCOC(=O)c1ccc(NC(=O)Cc2cccs2)cc1 | -0.275% | – | – |
| Cc1cccnc1NC(=O)Nc1ccc(F)cc1 | 35.7% | 25.9 µM [rising, single point] | 20.6 µM [rising, single point] |
| CN(Cc1ccccc1)S(=O)(=O)c1ccc(OCC(=O)N2CCC(C(N)=O)CC2)cc1 | -17.1% | – | – |
| O=C(N[C@@H](Cc1ccccc1)C(=O)OCc1ccccc1)c1nc[nH]c1C(=O)N[C@@H](Cc1ccccc1)C(=O)OCc1ccccc1 | – | 3.66 µM [falling, full curve] | – |
| CCCCOC(=O)c1ccc(NC(=O)c2c(OC)cccc2OC)cc1 | 18% | – | – |
| O=C(Nc1ccc(Oc2ccc(NC(=O)Nc3ccc([N+](=O)[O-])cc3)cc2)cc1)Nc1ccc([N+](=O)[O-])cc1 | 22.1% | 2.59 µM [falling, full curve] | 4.61 µM [rising, full curve, poor fit] |
| COC(=O)C1=[N+]([O-])OC(C(=O)OC)C1c1c[nH]c2ccccc12 (stereo unspecified) | -10.1% | 6.51 µM [rising, partial curve, poor fit] | 0.411 µM [rising, full curve, poor fit] |
| Oc1c(C=C2N=c3ccccc3=N2)sc(=S)n1-c1ccc(F)cc1 | -25.6% and -32.5% | 29.1 µM [falling, single point] and 14.6 µM [falling, partial curve, poor fit] | 29.1 µM [falling, single point] |
| O=C(CS(=O)(=O)c1ccccc1)c1cc2ccccc2oc1=O | -1.22% | 0.92 µM [falling, full curve, poor fit] | – |
| CC(C)(C)c1[nH]nc2c1C(c1ccncc1)C(C#N)=C(N)O2 (stereo unspecified) | -1.1% | – | – |
| Cn1ncc(Cl)c1C(=O)NCC1CCCO1 (stereo unspecified) | 14.5% | 2.91 µM [rising, full curve, poor fit] | – |
| CC(C)Cn1c(-c2ccccc2F)n[nH]c1=S | -3.67% | 6.51 µM [falling, single point] | – |
| COc1ccc(C(=O)NCC(c2ccco2)N2CCc3ccccc32)c(OC)c1 (stereo unspecified) | – | 2.59 µM [rising, partial curve] | 2.91 µM [rising, partial curve] |
| COc1ccccc1CNC(=O)CCCNC(=O)c1ccc(Cl)cc1 | – | 29.1 µM [rising, single point] | – |
| O=C(Nc1ccccc1N1CCOCC1)c1ccc(Cl)nc1 | 16.3% | 0.00517 µM [falling, full curve, poor fit] | 0.00461 µM [falling, full curve, poor fit] |
| O=C(C1CCN(S(=O)(=O)c2cnc[nH]2)CC1)N1CCN(Cc2ccc3c(c2)OCO3)CC1 | – | 1.64 µM [falling, full curve] | – |

| SMILES | cell number change | AC50 [1] | AC50 [2] |
| --- | --- | --- | --- |
| O=C(CCc1nc2ccccc2s1)Nc1cccnc1 | 14.1% | – | 2.06 µM [falling, partial curve] |
| CCCC1=C(C(=O)OCC)C(c2ccc(O)cc2)n2ncnc2N1 (stereo unspecified) | -9.55% | 2.06 µM [rising, full curve, poor fit] | – |
| O=C1OC(c2cccs2)=N/C1=C/c1ccc(-c2cccc(C(=O)O)c2)o1 | -79.4% | – | 29.1 µM [falling, single point] |
| O=C1CN(C(=S)Nc2ccccc2Cl)CCN1 | -0.611% | – | – |
| O=C(Nc1ccc2oc(=O)ccc2c1)c1ccc(-c2ccccc2[N+](=O)[O-])o1 | -0.534% | 1.84 µM [rising, partial curve] | – |
| COc1ccc2[nH]c(C)c(CCN3C(=O)C4C5C=CC(C5)C4C3=O)c2c1 (stereo unspecified) | 20.7% | 0.231 µM [rising, full curve, poor fit] | – |
| COc1ccc(N2CCN(C(=O)c3ccc(CNS(=O)(=O)c4ccc(C)cc4)cc3)CC2)cc1 | -36.9% | 18.4 µM [falling, partial curve] | 16.4 µM [falling, single point] |
| COc1ccccc1N(CC(O)CN1CCC(C)CC1)S(=O)(=O)c1ccccc1 (stereo unspecified) | -21.8% | – | – |
| CCC(C)NC(=S)NNC(=O)c1ccncc1 (stereo unspecified) | 1.28% | – | 0.291 µM [rising, partial curve, poor fit] |
| CN1CCN(C(=O)c2ccccc2[N+](=O)[O-])CC1 | -2.55% | – | – |
| CC1=C(C(=O)Nc2ccccn2)C(c2cn(C)nc2C)C2=C(CCCC2=O)N1 (stereo unspecified) | – | 2.91 µM [falling, single point] | 0.651 µM [rising, single point] |
| Cc1ccc(S(=O)(=O)N(C)Cc2nc(-c3ccc(Br)cc3)no2)cc1 | 72.7% | – | 29.1 µM [rising, single point] |
| Cc1nn(CC(=O)N2CCN(S(=O)(=O)c3ccccc3)CC2)c(C)c1[N+](=O)[O-] | 18% | 1.64 µM [falling, single point] | – |
| O=C(c1cc2c(s1)CCCC2)N1CCN(Cc2ccc3c(c2)OCO3)CC1 | -17.8% | 6.51 µM [rising, single point] | – |
| Cc1ccc(N=Nc2c(N)[nH]n3c(=O)cc(C)nc23)cc1 | -38.1% | 3.66 µM [rising, single point] | 29.1 µM [falling, single point] |
| COc1cccc(NC(=O)CSc2nnc(-c3cccc(OC(C)C)c3)n2N)c1 | -0.14% | 29.1 µM [rising, single point] | – |
| Cc1cc(=O)n2nc(N3CCCC(C(=O)NC(C)c4ccccc4)C3)sc2n1 (stereo unspecified) | 40% | 20.6 µM [rising, single point] | 29.1 µM [rising, single point] |
| CCn1c(=O)cc(OCC(=O)N(C)C2CCCCC2)c2ccccc21 | -35.7% | 4.11 µM [rising, full curve, poor fit] | 29.1 µM [falling, single point] |
